Results taken from patent US12098416B2, “Assessment of biological contamination and biological contamination treatment” (Halliburton Energy Services, Inc., priority 2019, dated 2024).
Some entries share one result that the patent states for a list of compounds.

How the values were obtained:
[1] = test system: SRB (sulfate reducing bacteria); assay: Biocide efficacy study on high TDS (10%) fluid sample, Rapid SRB Detection Pouches (thin-film culture device); assay type: cell-based; conditions: 4-hour biocide contact, dose level not clearly singled out, after approximately 48 hours, 32° C
[2] = test system: SRB (sulfate reducing bacteria); assay: Biocide efficacy study on low TDS (1%) fluid sample, Rapid SRB Detection Pouches (thin-film culture device); assay type: cell-based; conditions: 4-hour biocide contact, high dose (Glut 500 ppm, Glut/Quat 500 ppm, THPS 500 ppm, Preservative 250 ppm), after approximately 48 hours, 32° C

Compound | SRB count [1] | SRB count [2]
O=CCCCC=O [glutaraldehyde] | ≤ 10^1 bacteria/mL | ≤ 10^1 bacteria/mL
c1ncncn1 [triazine] | – | ≤ 10^1 bacteria/mL
